Publication PMC4712785
These are yes or no findings as the source states them, for the method shown. Binding seen in cells or lysates may run through a third protein. Some entries that bind do so weakly or less than the wild type. Sequences can lack the tags named with a protein.

By UniProt entry, the sequences of proteins in these tests, tags left out.
UniProt P06780: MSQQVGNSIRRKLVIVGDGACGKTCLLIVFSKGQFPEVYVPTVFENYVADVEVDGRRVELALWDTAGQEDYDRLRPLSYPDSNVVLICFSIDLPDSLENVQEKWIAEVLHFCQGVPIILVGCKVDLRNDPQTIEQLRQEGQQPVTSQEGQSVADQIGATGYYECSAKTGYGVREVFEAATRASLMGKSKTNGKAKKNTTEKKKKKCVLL

Tests used:
GST–Rod1 (S. cerevisiae) = target: T1, GST–Rod1 (S. cerevisiae) (UniProt Q02805); experiment: pull-down; GST or GST–α-arrestins from BJ5459 GEV yeast extracts on glutathione-agarose beads, washed, incubated 2 h at 4°C with extract of cells expressing HA-Rho1; 100 mM NaCl, 0.2% Triton X-100, 15 mM EGTA, 50 mM Tris-HCl pH 7.4; immunoblot anti-HA and anti-GST; only the target purified
T1 sequence: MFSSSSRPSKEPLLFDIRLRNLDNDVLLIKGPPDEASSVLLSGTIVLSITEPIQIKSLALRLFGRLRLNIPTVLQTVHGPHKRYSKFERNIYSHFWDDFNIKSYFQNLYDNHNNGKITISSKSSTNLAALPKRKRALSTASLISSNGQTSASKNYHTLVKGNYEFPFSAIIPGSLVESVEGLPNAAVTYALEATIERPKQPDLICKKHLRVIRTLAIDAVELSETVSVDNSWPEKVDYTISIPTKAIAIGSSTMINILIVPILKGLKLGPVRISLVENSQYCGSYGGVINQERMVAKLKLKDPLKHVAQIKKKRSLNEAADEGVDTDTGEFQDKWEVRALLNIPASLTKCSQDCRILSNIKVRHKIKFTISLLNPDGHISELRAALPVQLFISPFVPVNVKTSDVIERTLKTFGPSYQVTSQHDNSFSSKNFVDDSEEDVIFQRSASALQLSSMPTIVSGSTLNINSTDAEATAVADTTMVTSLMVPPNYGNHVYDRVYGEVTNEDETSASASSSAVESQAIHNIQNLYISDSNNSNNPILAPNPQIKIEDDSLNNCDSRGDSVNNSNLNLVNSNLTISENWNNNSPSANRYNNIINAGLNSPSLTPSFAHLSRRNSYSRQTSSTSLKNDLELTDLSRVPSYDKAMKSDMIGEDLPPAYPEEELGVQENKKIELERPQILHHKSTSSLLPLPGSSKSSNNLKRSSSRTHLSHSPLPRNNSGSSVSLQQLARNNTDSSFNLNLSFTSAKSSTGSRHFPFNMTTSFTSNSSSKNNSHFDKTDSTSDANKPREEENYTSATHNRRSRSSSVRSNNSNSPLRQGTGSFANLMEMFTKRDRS

GST–Aly1 (S. cerevisiae) = target: T2, GST–Aly1 (S. cerevisiae) (UniProt P36117); experiment: as above
T2 sequence: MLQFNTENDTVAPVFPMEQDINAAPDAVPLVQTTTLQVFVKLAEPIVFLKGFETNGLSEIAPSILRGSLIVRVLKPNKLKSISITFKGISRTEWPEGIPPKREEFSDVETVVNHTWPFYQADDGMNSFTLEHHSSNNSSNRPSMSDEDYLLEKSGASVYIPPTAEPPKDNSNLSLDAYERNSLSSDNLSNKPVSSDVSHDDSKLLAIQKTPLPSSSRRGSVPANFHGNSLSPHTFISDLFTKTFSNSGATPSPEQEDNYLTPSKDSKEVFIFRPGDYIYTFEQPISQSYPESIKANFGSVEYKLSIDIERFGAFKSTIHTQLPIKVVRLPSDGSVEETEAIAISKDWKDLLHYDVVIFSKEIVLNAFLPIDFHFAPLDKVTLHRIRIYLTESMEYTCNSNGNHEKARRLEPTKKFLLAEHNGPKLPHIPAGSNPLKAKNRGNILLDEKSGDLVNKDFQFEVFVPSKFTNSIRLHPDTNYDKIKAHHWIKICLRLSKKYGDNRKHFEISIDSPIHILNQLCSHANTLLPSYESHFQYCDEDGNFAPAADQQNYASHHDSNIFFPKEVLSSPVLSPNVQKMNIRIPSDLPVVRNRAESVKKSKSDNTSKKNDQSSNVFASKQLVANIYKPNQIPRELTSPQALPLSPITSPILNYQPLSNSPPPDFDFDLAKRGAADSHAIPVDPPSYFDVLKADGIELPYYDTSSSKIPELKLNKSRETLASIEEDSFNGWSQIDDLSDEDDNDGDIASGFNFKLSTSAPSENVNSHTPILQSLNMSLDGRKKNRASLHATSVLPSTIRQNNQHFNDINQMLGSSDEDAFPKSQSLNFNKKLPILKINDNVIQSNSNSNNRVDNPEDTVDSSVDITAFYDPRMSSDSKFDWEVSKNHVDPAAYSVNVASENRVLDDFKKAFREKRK

- binding (GST–Rod1 (S. cerevisiae)): binds
- binding (GST–Aly1 (S. cerevisiae)): binds
Substance: HA–Rho1 (from UniProt P06780 1-209)
